No constants are given. Whether binding was seen depends on the method and setting. Binding can be weak; no strength is given.
Molecular target: PacII_M1M2S methyltransferase heterotrimer (Pseudomonas alcaligenes NEB585)
Assay: SEC; purified M1M2S mixed with Ocr or ArdA at 1:5 molar ratio; Superdex G200 16/60 in 20 mM Tris pH 7.5, 150 mM NaCl, 1 mM DTT; both purified

binding: binds
B1: Ocr (anti-restriction protein) (protein, UniProt P03775 1-117)
chain: MAMSNMTYNNVFDHAYEMLKENIRYDDIRDTDDLHDAIHMAADNAVPHYYADIFSVMASEGIDLEFEDSGLMPDTKDVIRILQARIYEQLTIDLWEDAEDLLNEYLEEVEEYEEDEE

— PMC9613975
